# Data as given in PubChem BioAssay AID602196 (INSERM, 2012).
# Screen: 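Genes whose knock-down alters cisplatin killing of lung cancer cells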
# System: human A549 lung cancer cells
# Knock-down reagent: siRNA pair against human genes
# Time to read-out: 48 h transfection before cisplatin; time from cisplatin to read-out not stated
# Conditions: cisplatin at a dose killing half of control-siRNA cells; exact dose and duration not given
# Detection: 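Shift in cisplatin death relative to control siRNA, from -50 (all cells die) to +50 (no cells die); siRNAs harmful on their own scored 0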
# Direction: two-siRNA summed score (-2 to +2): higher = both siRNAs protect from cisplatin killing; -2 means both sensitise; mean protection from cisplatin (shift in death): higher = protection from cisplatin killing
# Call rule: 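Each siRNA scores 0 if harmful alone by LDH or WST-1, otherwise +1 if it reduces and -1 if it increases cisplatin killing; a gene is active when both siRNAs agree (sum +2 or -2)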
# Meaning of the calls: active = both siRNAs shift cisplatin killing the same way; inactive = no consistent shift, or siRNA harmful alone
# The whole screen tested about 23,000 reagents; shown is an unselected part. 455 of them (2%) count as active. 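Active includes both protection and sensitisation; some change values fall well beyond the stated -50 to +50 range.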 Further read-outs or replicates are left out here. No sequences are given here. Not given: the amount of reagent.
Gene,two-siRNA summed score (-2 to +2),mean protection from cisplatin (shift in death) (%),outcome
MDK,0,-0.2,inactive
MBIP,0,4.9,inactive
LOC442261,1,10.3,inactive
TMEM161B,-2,-15.5,active
RPS6,0,32.3,inactive
ZNF80,2,17.5,active
LOC401393,0,9.7,inactive
LOC440401,0,18.5,inactive
LINC01114,0,11.9,inactive
PYGL,0,1.3,inactive
ACTL7A,1,22.5,inactive
DCTN3,0,0.2,inactive
TAF1A,0,7.8,inactive
LOC440026,1,13,inactive
PAGR1,0,8.3,inactive
GLRA2,-1,-9.6,inactive
FGD1,-1,-9.1,inactive
PCDHGA9,1,18.4,inactive
MTHFD1L,0,-3.6,inactive
ST8SIA1,0,0.2,inactive
OR8H1,1,7.3,inactive
LINC01139,0,-3,inactive
CAMK2N2,0,-2.2,inactive
LINC01904,0,-1.7,inactive
RBPMS2,0,15.3,inactive
ILF2,-1,-11.8,inactive
MRM3,0,-10.5,inactive
LOC389160,0,10.5,inactive
EMILIN2,0,-0.6,inactive
LOC388928,0,3.9,inactive
AKAP11,0,7.9,inactive
ISL2,0,3,inactive
PBXIP1,2,14.9,active
SLC26A8,0,10.3,inactive
KIF4A,-1,-18.7,inactive
CD82,0,-5.8,inactive
PROX1,0,5.3,inactive
LOC440390,0,17.9,inactive
LOC389666,0,7.7,inactive
SLC7A3,1,17.6,inactive
FAM9C,1,10.6,inactive
LOC392084,0,6.6,inactive
MAN1A1,0,0.3,inactive
IMP4,0,4.2,inactive
B3GALNT1,1,13.4,inactive
LOC221140,0,3.5,inactive
PPP1R21,0,19.9,inactive
SOX9,1,16.7,inactive
RAB8A,0,-1.2,inactive
LOC149620,0,4.3,inactive
TXNDC16,-1,-13.3,inactive
MAB21L3,1,3.3,inactive
UIMC1,0,-6.8,inactive
LINC02213,1,7.8,inactive
AFF1,0,7,inactive
ISG20L2,0,-0.9,inactive
RWDD4,1,14.3,inactive
